According to the supplement of paper PMC9015667:
Structures can show the parent of a compound that is named as a salt. Some of the results follow. Repeats are few or missing, and single values can be far off.

tested on: M238P (parental melanoma line); experiment: reduction in cell viability relative to untreated/vehicle; higher = more growth inhibition; settings: 200 nM; 72 h

For `Cc1cc2cc3c(C)cc(=O)oc3c(C)c2o1` [Trioxsalen], which “reduction in cell viability” value is on record?
Its value is under 0%.

`CCCCCCNC(=O)n1cc(F)c(=O)[nH]c1=O` [Carmofur] was tested. Which “reduction in cell viability” value did it give?
Its value is under 0%.

For `OC[C@H]1O[C@@H](n2cnc3c2N=CNC[C@H]3O)C[C@@H]1O` [Pentostatin], which “reduction in cell viability” value is on record?
The value was under 0%.

Which “reduction in cell viability” value does the source give for `N[C@@H](Cc1cc(I)c(Oc2cc(I)c(O)c(I)c2)c(I)c1)C(=O)O` [L-Thyroxine] here?
Its value is under 0%.

With `CCCCCCCCCCCCCCCCCCOP(=O)([O-])OC1CC[N+](C)(C)CC1` [Perifosine] as the compound, how does the “reduction in cell viability” value read?
Its value is under 0%.

Which “reduction in cell viability” value does the source give for `CN1C(=O)C[C@@H](C(=O)N[C@@H](Cc2c[nH]cn2)C(=O)N2CCC[C@H]2C(N)=O)NC1=O` [Taltirelin] here?
The value was under 0%.

How did the “reduction in cell viability” value turn out when `O=C(NC[C@H](O)CO)c1ccncc1Nc1ccc(I)cc1F` [Pimasertib] was run?
Its value is 36.9%.

Which “reduction in cell viability” value does the source give for `CC(C)C[C@@H](C=O)NC(=O)[C@H](CC(C)C)NC(=O)[C@H](CC(C)C)NC(=O)OCc1ccccc1` here?
Its value is 89.9%.

Which “reduction in cell viability” value does the source give for `NC(=O)N1c2ccccc2CC(=O)c2ccccc21` [Oxcarbazepine] here?
Its value is under 0%.

How did the “reduction in cell viability” value turn out when `O=C1NC(=O)/C(=C/c2ccc3nccc(-c4ccncc4)c3c2)S1` was run?
Its value is 11.6%.

`NC(=O)c1ccc2[nH]ccc2c1` was tested. Which “reduction in cell viability” value did it give?
Its value is under 0%.

Which “reduction in cell viability” value does the source give for `C[C@H]1[C@H](NC(=O)/C(=N\OC(C)(C)C(=O)O)c2csc(N)n2)C(=O)N1S(=O)(=O)O` [Aztreonam] here?
The value was under 0%.

Which “reduction in cell viability” value does the source give for `CO[C@@H]1[C@@H](OC(N)=O)[C@@H](O)[C@H](Oc2ccc3c(O)c(NC(=O)c4ccc(O)c(CC=C(C)C)c4)c(=O)oc3c2C)OC1(C)C` [Novobiocin sodium] here?
The value was under 0%.

Which “reduction in cell viability” value does the source give for `C[C@@H]1CC(=O)NN=C1c1ccc(NN=C(C#N)C#N)cc1` [Levosimendan] here?
Its value is under 0%.

For `Nc1cccc(S(=O)(=O)N2CCCN(S(=O)(=O)c3ccc4c(c3)OCCO4)CC2)c1`, which “reduction in cell viability” value is on record?
Its value is under 0%.

`CCOC(=O)N1CCN(/[N+]([O-])=N/Oc2ccc([N+](=O)[O-])cc2[N+](=O)[O-])CC1` was tested. Which “reduction in cell viability” value did it give?
The value was under 0%.

How did the “reduction in cell viability” value turn out when `CC(C)NC[C@@H](C(=O)N1CCN(c2ncnc3c2[C@H](C)C[C@H]3O)CC1)c1ccc(Cl)cc1` was run?
The value was under 0%.

tested on: M238R (matched melanoma line resistant to BRAF inhibitors); experiment: as above; settings: 200 nM; 72 h

How did the “reduction in cell viability” value turn out when `C=CCNC1=C2C[C@@H](C)C[C@H](OC)[C@H](O)[C@@H](C)/C=C(\C)[C@H](OC(N)=O)[C@@H](OC)/C=C\C=C(/C)C(=O)NC(=CC1=O)C2=O` [Tanespimycin] was run?
The value was 37%.

Which “reduction in cell viability” value does the source give for `CCCS(=O)(=O)Nc1ccc(F)c(C(=O)c2c[nH]c3ncc(-c4ccc(Cl)cc4)cc23)c1F` [Vemurafenib (PLX4032, RG7204)] here?
The value was under 0%.

With `Cc1cn2c(-c3cn[nH]c3)cnc2c(Nc2ccc(C(=O)N3CCNCC3)cc2F)n1` as the compound, how does the “reduction in cell viability” value read?
Its value is under 0%.

How did the “reduction in cell viability” value turn out when `CCc1cc(/C(C)=N/OCc2ccc(C3CCCCC3)c(C(F)(F)F)c2)ccc1CN1CC(C(=O)O)C1` was run?
The value was under 0%.

For `CCn1cc(C(=O)O)c(=O)c2cc(F)c(N3CCNC(C)C3)c(F)c21` (stereo not given) [Lomefloxacin hydrochloride], which “reduction in cell viability” value is on record?
The value was under 0%.

With `Cc1c(CN2CCN(C(=O)[C@H](C)O)CC2)sc2c(N3CCOCC3)nc(-c3cnc(N)nc3)nc12` as the compound, how does the “reduction in cell viability” value read?
Its value is 59.1%.

With `N=C(N)c1ccc(OCCCCCOc2ccc(C(=N)N)cc2)cc1` [Pentamidine isethionate] as the compound, how does the “reduction in cell viability” value read?
Its value is under 0%.

`CC(S)C(=O)NCC(=O)O` (stereo not given) [Tiopronin] was tested. Which “reduction in cell viability” value did it give?
The value was under 0%.

Which “reduction in cell viability” value does the source give for `Nc1nc2[nH]cnc2c(=S)[nH]1` [Tioguanine] here?
The value was under 0%.

With `O=c1c(O)c(-c2cc(O)c(O)c(O)c2)oc2cc(O)cc(O)c12` [Myricetin] as the compound, how does the “reduction in cell viability” value read?
Its value is under 0%.

With `COc1ccccc1N1CCN(CC(O)COc2cccc3ccccc23)CC1` (stereo not given) [Naftopidil] as the compound, how does the “reduction in cell viability” value read?
The value was under 0%.

`CN1CC[C@H](c2c(O)cc(O)c3c(=O)cc(-c4ccccc4Cl)oc23)[C@H](O)C1` [Flavopiridol] was tested. Which “reduction in cell viability” value did it give?
Its value is 67.6%.

For `COc1cc(OC)cc(-c2ccc3ncc4ccc(=O)n(-c5ccc(N6CCNCC6)c(C(F)(F)F)c5)c4c3c2)c1`, which “reduction in cell viability” value is on record?
Its value is 4.38%.

Which “reduction in cell viability” value does the source give for `O=C(O)C[C@H](O)C[C@H](O)/C=C/c1c(C2CC2)nc2ccccc2c1-c1ccc(F)cc1` [Pitavastatin calcium] here?
The value was under 0%.

For `C=C1/C(=C\C=C2/CCC[C@]3(C)[C@@H]([C@H](C)/C=C/C=C/C(O)(CC)CC)CC[C@@H]23)C[C@@H](O)C[C@@H]1O` [Seocalcitol], which “reduction in cell viability” value is on record?
The value was under 0%.

For `CCOc1cc2ncc(C#N)c(Nc3ccc(F)c(Cl)c3)c2cc1NC(=O)/C=C/CN(C)C` [Pelitinib], which “reduction in cell viability” value is on record?
The value was 5.04%.

`Cc1cccc(-c2[nH]ncc2-c2ccc3ncccc3n2)n1` was tested. Which “reduction in cell viability” value did it give?
The value was under 0%.

For `CCC(=O)NCC[C@@H]1CCc2ccc3c(c21)CCO3` [Ramelteon], which “reduction in cell viability” value is on record?
The value was under 0%.
